No constants are given. Whether binding was seen depends on the method and setting. Binding seen in cells or lysates may run through a third protein. Binding calls can cover weak binding; strength is not graded here.
Molecular target: PI3K
Assay: co-immunoprecipitation from cell lysates

- binding: binds
B1: human syndecan-1 (receptor)
chain: QIVATNLPPEDQDGSGDDSDNFSGSGAGALQDITLSQQTPSTWKDTQLLTAIPTSPEPTGLEATAASTSTLPAGEGPKEGEAVVLPEVEPGLTAREQEATPRPRETTQLPTTHQASTTTATTAQEPATSHPHRDMQPGHHETSTPAGPSQADLHTPHTEDGGPSATERAAEDGASSQLPAAEGSGEQDFTFETSGENTAVVAVEPDRRNQSPVDQGATGASQGLLDRKEVLGGVIAGGLVGLIFAVCLVGFMLYRMKKKDEGSYSLEEPKQANGGAYQKPTKQEEFYA
notes: Endogenous Sdc1 of human cells, immunoprecipitated from cell lysates; also called hSdc1; Sdc1
